Reference: patent publication US9938331
Results are given in words; binding and its absence hold for the method and conditions named. Some binding calls cover weakened binding; strength is not graded here.

The chains behind the UniProt entries cited, without tags or fusion partners. Where a name states a change or a piece, a line headed by the entry shows the natural chain unless it says otherwise. A line that says so, or that is headed by a name, gives the form on record, which may keep a tag or linker. Residues count along the entry.
human VEGF (P15692, form named): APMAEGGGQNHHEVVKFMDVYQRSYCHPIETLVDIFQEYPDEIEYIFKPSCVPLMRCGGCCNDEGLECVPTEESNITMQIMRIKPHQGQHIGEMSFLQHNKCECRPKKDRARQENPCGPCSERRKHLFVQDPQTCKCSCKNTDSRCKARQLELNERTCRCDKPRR
VEGF121 antigen (P15692, form named): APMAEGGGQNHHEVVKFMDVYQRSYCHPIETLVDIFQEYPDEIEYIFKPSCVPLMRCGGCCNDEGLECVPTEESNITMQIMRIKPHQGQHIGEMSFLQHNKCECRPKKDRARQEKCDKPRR
UniProt P10747, residues 19-152: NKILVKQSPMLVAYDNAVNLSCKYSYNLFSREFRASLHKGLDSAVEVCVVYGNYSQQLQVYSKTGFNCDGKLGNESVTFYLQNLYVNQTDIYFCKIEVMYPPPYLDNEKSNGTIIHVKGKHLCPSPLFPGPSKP

T1: EpCAM (UniProt P16422)
T1 sequence (looked up): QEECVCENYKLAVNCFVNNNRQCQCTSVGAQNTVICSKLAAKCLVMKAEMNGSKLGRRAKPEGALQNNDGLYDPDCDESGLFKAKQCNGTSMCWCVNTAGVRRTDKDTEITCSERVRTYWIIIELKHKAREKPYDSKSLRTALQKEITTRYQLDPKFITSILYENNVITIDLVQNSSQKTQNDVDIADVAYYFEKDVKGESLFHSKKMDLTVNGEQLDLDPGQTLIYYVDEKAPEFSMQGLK


Each binder was assayed against T1, EpCAM (assay: affinity selection of phagemid libraries against EpCAM (EpCam 2)).

Binder	binding
LTLECIGNICYVPHH	binds

Each binder was assayed against human VEGF (human) (UniProt P15692) (assay: phage panning of cysteine-constrained peptide libraries).

Binder	binding
FTCTNHWCPS	binds
FQCTRHWCPI	binds

What follows are binders tested against VEGF121 antigen (UniProt P15692) (assay: phage panning of buildup libraries and screening).

Binder	binding
SEQ ID NO 357 (designed binder) QAAGPSGPCSYYAYFTCTNHWCPSPPFAFTCTNHWCPSYYDSAYCGQSGGS	binds
QAAGPSGPCAAYAYFTCTNHWCPSYYSAACGQSGGSG (designed binder) [SEQ ID NO 358]	binds
QAAGPSGPCAYAYYFTCTNHWCPSYYAYYCGQSGGSG (designed binder) [SEQ ID NO 359]	binds
QAAGPSGPCAYYSYFTCTNHWCPSYYSSYCGQSGGSG (designed binder) [SEQ ID NO 360]	binds

These binders were tested against CD28 (UniProt P10747) (assay: phage ELISA on coated antigen after panning of 1SS libraries).

Binder	binding
TTAYPDCFWCSLFGPP [sNG0028S3.085]	binds
MLDTTICPWCSLFGPV [sNG0028S3.081]	binds
ELLLERCSWCSLFGPP [sNG0028S3.086]	binds
SLSQQSCDWCWLFGPP [sNG0028S3.060]	binds
KRLLECGALCALFGPP [sNG0028S3.008]	binds
HTILTCDSGFCTLFGP [sNG0028S3.012]	binds
NLWHVCHTSLCHSRLA [sNG0028S3.092]	binds
NSFYLCHSSVCGQLPS [sNG0028S3.082]	binds
AGFSCENYFFCPPKNL [sNG0028S3.016]	binds
SWCTVFGNHDPSCNSR [sNG0028S3.004]	binds

Each binder was assayed against human VEGF (human) (UniProt P15692) (assay: starting sequence of the 2SS buildup library).

Binder	binding
FTCTNHWCPS	binds
